According to publication PMC8956270:
No constants are given. Whether binding was seen depends on the method and setting. In cells and extracts the contact can be indirect. Tags and fused reporters may be left off the sequences shown.

Sequences of proteins named here, by UniProt entry; tags and fusion partners are left off.
UniProt P09429: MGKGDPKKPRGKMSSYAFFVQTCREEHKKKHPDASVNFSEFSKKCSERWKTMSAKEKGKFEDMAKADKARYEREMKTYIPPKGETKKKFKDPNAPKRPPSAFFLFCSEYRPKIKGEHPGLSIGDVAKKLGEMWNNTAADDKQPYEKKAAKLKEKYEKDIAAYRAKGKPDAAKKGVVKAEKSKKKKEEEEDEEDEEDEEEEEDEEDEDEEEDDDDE

Biological target: T1, HA-hLXR (human HA-LXRα) (human) (UniProt Q13133)
T1 sequence: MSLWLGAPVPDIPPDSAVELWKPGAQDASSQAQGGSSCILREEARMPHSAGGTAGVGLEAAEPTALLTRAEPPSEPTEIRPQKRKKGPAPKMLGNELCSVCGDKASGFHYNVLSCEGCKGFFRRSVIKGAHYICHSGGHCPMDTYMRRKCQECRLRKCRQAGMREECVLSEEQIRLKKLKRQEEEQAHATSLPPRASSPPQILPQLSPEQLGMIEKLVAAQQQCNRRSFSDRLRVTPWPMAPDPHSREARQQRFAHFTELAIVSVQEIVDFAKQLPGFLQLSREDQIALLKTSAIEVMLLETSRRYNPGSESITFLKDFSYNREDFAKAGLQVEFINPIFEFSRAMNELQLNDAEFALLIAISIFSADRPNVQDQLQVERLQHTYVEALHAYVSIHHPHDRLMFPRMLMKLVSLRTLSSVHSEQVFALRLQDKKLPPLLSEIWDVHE
Assay: co-IP; Ad293 cells transfected with HA-hLXR and/or HMGB1 plasmids, treated with DMSO (vehicle) or T0901317; lysed in IP buffer (20 mM tris-HCl pH 8, 100 mM NaCl, 0.1% NP-40, 10% glycerol, 1 mM DTT); IP with HA-conjugated beads for 2 hours at 4°C; Western blot

Myc-HMGB1 (from UniProt P09429 1-215)
binding: no binding
